PubChem BioAssay AID1159578 – Peter MacCallum Cancer Centre, 2015
In all, the deposit lists about 18,000 reagents; this is an unselected part. About 1,030 of them (5.7%) count as active. 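Inactive calls also include pools with fewer than 3300 nuclei, whose migration was not assessed.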 Raw values vary from plate to plate and are shown uncorrected. Not all columns of the deposit are shown.

Assay: 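Knock-downs that alter how fast lymphatic endothelial cells migrate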 (primary screen)
System: human lymphatic endothelial cells
Reagents: siRNA pool against human genes, 40 nM
Duration: 48 h after transfection
Detection: 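High-content imaging of dye-stained cells in a scratch assay measures filled wound area and nuclei per well; duplicate means given as ratio to mock and robust z-score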
Scale: migration robust z-score: higher = faster migration into the scratch; nuclei per well: higher = more cells in the well
Rule for the call: 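Pools averaging fewer than 3300 nuclei are never called; remaining pools count as changed when migration robust z lies outside -2 to 2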
Meaning of the calls: active = migration changed; inactive = no migration change, or too few cells

gene	migration robust z-score	nuclei per well, duplicate mean	activity call
PDIK1L	0.02	5124	inactive
KIR3DS1	2.72	6250	active
CHRNB4	-0.36	4887	inactive
MIMS2	-0.26	5310	inactive
RUNX1	-1.06	4742	inactive
ARHGAP8	1.71	5988	inactive
GBX2	-0.21	6188	inactive
USP26	0.36	6132	inactive
KHDC1	-0.62	4372	inactive

The list goes on, starting with the last 3 of the part before.
gene	migration robust z-score	nuclei per well, duplicate mean	activity call
GBX2	-0.21	6188	inactive
USP26	0.36	6132	inactive
KHDC1	-0.62	4372	inactive
PIGZ	-0.04	5427	inactive
HNRNPA1L2	-0.82	4866	inactive
FKBP5	-0.6	5546	inactive
SPSB4	-0.21	5060	inactive
DGKI	-0.29	5069	inactive
BRWD1	1.03	6002	inactive
FOXRED1	0.32	7406	inactive
CYP2D6	-0.31	4612	inactive
AFF4	0.02	5784	inactive
ZFHX4	1.16	6228	inactive
NHSL3	1.39	5562	inactive
YWHAE	0.52	5048	inactive
AIRIM	0.25	7098	inactive
FPR3	-1.27	4708	inactive
